Experimental data published in PubChem BioAssay (NCATS).
This list was built around the results that the source calls inconclusive (neither active nor inactive); the mix of calls is not that of the screen. Potencies beside an inconclusive call are fits to weak or partial responses and may not hold up. Active and inactive are the calls of the source. Calls follow the shape of the full dose curve.

experiment: Primary qHTS for Vero E6 cytotoxicity: counterscreen for inhibitors of SARS-S pseudo-typed particle cell entry (AID 1479150); conditions: cell viability; series mostly up to 57.1 µM
Potency is read from the fitted curve at half-maximal effect.

Structure (SMILES)	Potency
CCn1c(=O)c2c(nc(C=Cc3ccc(OC)c(OC)c3)n2C)n(CC)c1=O	inactive
C[C@H]1CC[C@@H]2[C@@H](C)[C@H]3[C@H](C[C@H]4[C@@H]5CC=C6C[C@@H](O[C@@H]7O[C@H](CO)[C@H](O)[C@H](O[C@@H]8O[C@H](CO)[C@@H](O)[C@H](O)[C@H]8O)[C@H]7O[C@@H]7O[C@@H](C)[C@H](O)[C@@H](O)[C@H]7O)CC[C@]6(C)[C@H]5CC[C@]34C)N2C1	inconclusive: 17.8 µM [cytotoxic, partial curve, poor fit]
CC[N+](C)(C)Cc1ccccc1Br	inconclusive: 6.31 µM [cytotoxic, single point]
Cc1cccc([C@H](C)c2cnc[nH]2)c1C	inconclusive: 3.55 µM [cytotoxic, single point]
O=C(/C=C/c1cccc(S(=O)(=O)Nc2ccccc2)c1)NO	inconclusive: 12.6 µM [cytotoxic, partial curve, poor fit]
CCOCCn1c(C2CCN(CCc3ccc(C(C)(C)C(=O)O)cc3)CC2)nc2ccccc21	inactive
OC[C@H]1O[C@@H](OC[C@H]2O[C@@H](O[C@@H]3[C@@H](O)[C@H](O)O[C@H](CO)[C@H]3O)[C@H](O)[C@@H](O[C@@H]3O[C@H](CO)[C@@H](O)[C@H](O)[C@H]3O)[C@@H]2O)[C@H](O)[C@@H](O)[C@@H]1O	inactive
N[C@H](Cc1cnc[nH]1)C(=O)O	inactive
CCOc1ccc(Cc2cc([C@@H]3O[C@H](CO)[C@@H](O)[C@H](O)[C@H]3O)ccc2Cl)cc1	inactive
CC(C)n1c(/C=C/[C@H](O)C[C@H](O)CC(=O)O)c(-c2ccc(F)cc2)c2ccccc21	active: 8.91 µM

experiment: Confirmatory qHTS for activators (rescue) of SARS-CoV-2 Cytopathic Effect (CPE) (AID 1508606); conditions: Vero E6 SARS-CoV-2 CPE rescue, viability luminescence; series mostly up to 20 µM; also: nearly all actives have a fitted effect of over 70% in size

Structure (SMILES)	Potency
O=C1Nc2ccc(Cl)cc2[C@@](C#CC2CC2)(C(F)(F)F)O1	inconclusive: 14.1 µM [activator, single point]
CN(C)CCOC(c1ccccc1)c1ccc(Br)cc1 (stereo not given)	inconclusive: 10 µM [activator, partial curve, poor fit]
OCCOc1ccc(/C(=C(/CCCl)c2ccccc2)c2ccccc2)cc1	inconclusive: 12.6 µM [activator, single point]
CCOC(=O)[C@H](CCc1ccccc1)N[C@H]1CCc2ccccc2N(CC(=O)O)C1=O	inconclusive: 11.2 µM [activator, single point]
CCOC(=O)C1=C(COCCN)NC(C)=C(C(=O)OC)C1c1ccccc1Cl (stereo not given)	inconclusive: 11.2 µM [activator, single point]
